Laboratory results published in PMC4636238.
No constants are given. Whether binding was seen depends on the method and setting. Binding seen in cells or lysates may run through a third protein. These calls come from enrichment with a bait or labelling near it, and not all partners need be listed. Where a sequence is shown, tags or fusion partners need not be part of it.

B1: Phosphoinositide 3-kinase adapter protein 1 (protein, UniProt Q6ZUJ8 1-805)
chain: MAASGVPRGCDILIVYSPDAEEWCQYLQTLFLSSRQVRSQKILTHRLGPEASFSAEDLSLFLSTRCVVVLLSAELVQHFHKPALLPLLQRAFHPPHRVVRLLCGVRDSEEFLDFFPDWAHWQELTCDDEPETYVAAVKKAISEDSGCDSVTDTEPEDEKVVSYSKQQNLPTVTSPGNLMVVQPDRIRCGAETTVYVIVRCKLDDRVATEAEFSPEDSPSVRMEAKVENEYTISVKAPNLSSGNVSLKIYSGDLVVCETVISYYTDMEEIGNLLSNAANPVEFMCQAFKIVPYNTETLDKLLTESLKNNIPASGLHLFGINQLEEEDMMTNQRDEELPTLLHFAAKYGLKNLTALLLTCPGALQAYSVANKHGHYPNTIAEKHGFRDLRQFIDEYVETVDMLKSHIKEELMHGEEADAVYESMAHLSTDLLMKCSLNPGCDEDLYESMAAFVPAATEDLYVEMLQASTSNPIPGDGFSRATKDSMIRKFLEGNSMGMTNLERDQCHLGQEEDVYHTVDDDEAFSVDLASRPPVPVPRPETTAPGAHQLPDNEPYIFKVFAEKSQERPGNFYVSSESIRKGPPVRPWRDRPQSSIYDPFAGMKTPGQRQLITLQEQVKLGIVNVDEAVLHFKEWQLNQKKRSESFRFQQENLKRLRDSITRRQREKQKSGKQTDLEITVPIRHSQHLPAKVEFGVYESGPRKSVIPPRTELRRGDWKTDSTSSTASSTSNRSSTRSLLSVSSGMEGDNEDNEVPEVTRSRSPGPPQVDGTPTMSLERPPRVPPRAASQRPPTRETFHPPPPVPPRGR
B2: BPI fold-containing family A member 2 (protein, UniProt Q96DR5 19-249)
chain: ESLLDNLGNDLSNVVDKLEPVLHEGLETVDNTLKGILEKLKVDLGVLQKSSAWQLAKQKAQEAEKLLNNVISKLLPTNTDIFGLKISNSLILDVKAEPIDDGKGLNLSFPVTANVTVAGPIIGQIINLKASLDLLTAVTIETDPQTHQPVAVLGECASDPTSISLSLLDKHSQIINKFVNSVINTLKSTVSSLLQKEICPLIRIFIHSLDVNVIQQVVDNPQHKTQLQTLI
B3: Teashirt homolog 1 (protein, UniProt Q6ZSZ6 1-1077)
chain: MPRRKQQAPRRSAAYVPEEELKAAEIDEEHVEDDGLSLDIQESEYMCNEETEIKEAQSYQNSPVSSATNQDAGYGSPFSESSDQLAHFKGSSSREEKEDPQCPDSVSYPQDSLAQIKAVYANLFSESCWSSLALDLKKSGSTTSTNDASQKESSAPTPTPPTCPVSTTGPTTSTPSTSCSSSTSHSSTTSTSSSSGYDWHQAALAKTLQQTSSYGLLPEPSLFSTVQLYRQNNKLYGSVFTGASKFRCKDCSAAYDTLVELTVHMNETGHYRDDNRDKDSEKTKRWSKPRKRSLMEMEGKEDAQKVLKCMYCGHSFESLQDLSVHMIKTKHYQKVPLKEPVPAITKLVPSTKKRALQDLAPPCSPEPAGMAAEVALSESAKDQKAANPYVTPNNRYGYQNGASYTWQFEARKAQILKCMECGSSHDTLQQLTAHMMVTGHFLKVTTSASKKGKQLVLDPVVEEKIQSIPLPPTTHTRLPASSIKKQPDSPAGSTTSEEKKEPEKEKPPVAGDAEKIKEESEDSLEKFEPSTLYPYLREEDLDDSPKGGLDILKSLENTVSTAISKAQNGAPSWGGYPSIHAAYQLPGTVKPLPAAVQSVQVQPSYAGGVKSLSSAEHNALLHSPGSLTPPPHKSNVSAMEELVEKVTGKVNIKKEERPPEKEKSSLAKAASPIAKENKDFPKTEEVSGKPQKKGPEAETGKAKKEGPLDVHTPNGTEPLKAKVTNGCNNLGIIMDHSPEPSFINPLSALQSIMNTHLGKVSKPVSPSLDPLAMLYKISNSMLDKPVYPATPVKQADAIDRYYYENSDQPIDLTKSKNKPLVSSVADSVASPLRESALMDISDMVKNLTGRLTPKSSTPSTVSEKSDADGSSFEEALDELSPVHKRKGRQSNWNPQHLLILQAQFASSLRETTEGKYIMSDLGPQERVHISKFTGLSMTTISHWLANVKYQLRRTGGTKFLKNLDTGHPVFFCNDCASQFRTASTYISHLETHLGFSLKDLSKLPLNQIQEQQNVSKVLTNKTLGPLGATEEDLGSTFQCKLCNRTFASKHAVKLHLSKTHGKSPEDHLIYVTELEKQ
B4: MUF1 protein variant (Fragment) (protein, UniProt Q15345 1-812)
chain: MAAPEAWRARSCWFCEVAAATTMEATSREAAPAKSSASGPNAPPALFELCGRAVSAHMGVLESGVWALPGPILQSILPLLNIYYLERIEETALKKGLSTQAIWRRLWDELMKTRPSSLESVTCWRAKFMEAFFSHVLRGTIDVSSDRRLCDQRFSPLLHSSRHVRQLTICNMLQGATELVAEPNRRVLETLASSLHTLKFRHLLFSDVAAQQSLRQLLHQLIHHGAVSQVSLYSWPVPESALFILILTMSAGFWQPGPGGPPCRLCGEASRGRAPSRDEGSLLLGSRRPRRDAAERCAAALMASRRKSEAKQMPRAAPATRVTRRSTQESLTAGGTDLKRELHPPATSHEAPGTKRSPSAPAATSSASSSTSSYKRAPASSAPQPKPLKRFKRAAGKKGARTRQGPGAESEDLYDFVFIVAGEKEDGEEMEIGEVACGALDGSDPSCLGLPALEASQRFRSISTLELFTVPLSTEAALTLCHLLSSWVSLESLTLSYNGLGSNIFRLLDSLRALSGQAGCRLRALHLSDLFSPLPILELTRAIVRALPLLRVLSIRVDHPSQRDNPGVPGNAGPPSHIIGDEEIPENCLEQLEMGFPRGAQPAPLLCSVLKASGSLQQLSLDSATFASPQDFGLVLQTLKEYNLALKRLSFHDMNLADCQSEVLFLLQNLTLQEITFSFCRLFEKRPAQFLPEMVAAMKGNSTLKGLRLPGNRLGNAGLLALADVFSEDSSSSLCQLDISSNCIKPDGLLEFAKRLERWGRGAFGHLRLFQNWLDQDAVTAREAIRRLRATCHVVSDSWDSSQAFADYVSTM
B5: Lysozyme C (P61626) (enzyme, UniProt P61626 19-148)
chain: KVFERCELARTLKRLGMDGYRGISLANWMCLAKWESGYNTRATNYNAGDRSTDYGIFQINSRYWCNDGKTPGAVNACHLSCSALLQDNIADAVACAKRVVRDPQGIRAWVAWRNRCQNRDVRQYVQGCGV
B6: Prolactin-inducible protein (protein, UniProt P12273 29-146)
chain: QDNTRKIIIKNFDIPKSVRPNDEVTAVLAVQTELKECMVVKTYLISSIPLQGAFNYKYTACLCDDNPKTFYWDFYTNRTVQIAAVVDVIRELGICPDDAAVIPIKNNRFYTIEILKVE
B7: Matrix Gla protein (protein, UniProt P08493 20-96)
chain: YESHESMESYELNPFINRRNANTFISPQQRWRAKVQERIRERSKPVHELNREACDDYRLCERYAMVYGYNAAYNRYF
B8: Alpha-amylase 1 (enzyme, UniProt P0DUB6 16-511)
chain: QYSSNTQQGRTSIVHLFEWRWVDIALECERYLAPKGFGGVQVSPPNENVAIHNPFRPWWERYQPVSYKLCTRSGNEDEFRNMVTRCNNVGVRIYVDAVINHMCGNAVSAGTSSTCGSYFNPGSRDFPAVPYSGWDFNDGKCKTGSGDIENYNDATQVRDCRLSGLLDLALGKDYVRSKIAEYMNHLIDIGVAGFRIDASKHMWPGDIKAILDKLHNLNSNWFPEGSKPFIYQEVIDLGGEPIKSSDYFGNGRVTEFKYGAKLGTVIRKWNGEKMSYLKNWGEGWGFMPSDRALVFVDNHDNQRGHGAGGASILTFWDARLYKMAVGFMLAHPYGFTRVMSSYRWPRYFENGKDVNDWVGPPNDNGVTKEVTINPDTTCGNDWVCEHRWRQIRNMVNFRNVVDGQPFTNWYDNGSNQVAFGRGNRGFIVFNNDDWTFSLTLQTGLPAGTYCDVISGDKINGNCTGIKIYVSDDGKAHFSISNSAEDPFIAIHAESKL
B9: Probable cation-transporting ATPase 13A2 (Fragment) (protein, UniProt Q9NQ11 1-1180)
chain: MSADSSPLVGSTPTGYGTLTIGTSIDPLSSSVSSVRLSGYCGSPWRVIGYHVVVWMMAGIPLLLFRWKPLWGVRLRLRPCNLAHAETLVIEIRDKEDSSWQLFTVQVQTEAIGEGSLEPSPQSQAEDGRSQAAVGAVPEGAWKDTAQLHKSEEAVSVGQKRVLRYYLFQGQRYIWIETQQAFYQVSLLDHGRSCDDVHRSRHGLSLQDQMVRKAIYGPNVISIPVKSYPQLLVDEALNPYYGFQAFSIALWLADHYYWYALCIFLISSISICLSLYKTRKQSQTLRDMVKLSMRVCVCRPGGEEEWVDSSELVPGDCLVLPQEGGLMPCDAALVAGECMVNESSLTGESIPVLKTALPEGLGPYCAETHRRHTLFCGTLILQARAYVGPHVLAVVTRTGFCTAKGGLVSSILHPRPINFKFYKHSMKFVAALSVLALLGTIYSIFILYRNRVPLNEIVIRALDLVTVVVPPALPAAMTVCTLYAQSRLRRQGIFCIHPLRINLGGKLQLVCFDKTGTLTEDGLDVMGVVPLKGQAFLPLVPEPRRLPVGPLLRALATCHALSRLQDTPVGDPMDLKMVESTGWVLEEEPAADSAFGTQVLAVMRPPLWEPQLQAMEEPPVPVSVLHRFPFSSALQRMSVVVAWPGATQPEAYVKGSPELVAGLCNPETVPTDFAQMLQSYTAAGYRVVALASKPLPTVPSLEAAQQLTRDTVEGDLSLLGLLVMRNLLKPQTTPVIQALRRTRIRAVMVTGDNLQTAVTVARGCGMVAPQEHLIIVHATHPERGQPASLEFLPMESPTAVNGVKDPDQAASYTVEPDPRSRHLALSGPTFGIIVKHFPKLLPKVLVQGTVFARMAPEQKTELVCELQKLQYCVGMCGDGANDCGALKAADVGISLSQAEASVVSPFTSSMASIECVPMVIREGRCSLDTSFSVFKYMALYSLTQFISVLILYTINTNLGDLQFLAIDLVITTTVAVLMSRTGPALVLGRVRPPGALLSVPVLSSLLLQMVLVTGVQLGGYFLTLAQPWFVPLNRTVAAPDNLPNYENTVVFSLSSFQYLILAAAVSKGAPFRRPLYTNVPFLVALALLSSVLVGLVLVPGLLQGPLALRNITDTGFKLLLLGLVTLNFVGAFMLESVLDQCLPACLRRLRPKRASKKRFKQLERELAEQPWPPLPAGPLR
B10: Pancreatic adenocarcinoma upregulated factor (protein, UniProt Q96DA0 17-172)
chain: GKMYGPGGGKYFSTTEDYDHEITGLRVSVGLLLVKSVQVKLGDSWDVKLGALGGNTQEVTLQPGEYITKVFVAFQAFLRGMVMYTSKDRYFYFGKLDGQISSAYPSQEGQVLVGIYGQYQLLGIKSIGFEWNYPLEEPTTEPPVNLTYSANSPVGR

Experiments:
[1] = biological target: biotinylated histatin 5 (human) (UniProt P15516); assay: affinity purification with mass spectrometry; pull-down: biotinylated histatin 5 on immobilized streptavidin agarose beads; 300 ug lyophilized parotid saliva in pH 7.0 binding buffer, 4 h, 4°C; washed with PBS with 75 mM NaCl pH 5.0; eluted at pH 2.8; trypsin digestion, LC-ESI-MS/MS; only the target purified
[2] = biological target: histatin 5 (human) (UniProt P15516); assay: affinity purification with mass spectrometry; co-IP: synthetic histatin 5 held by mouse anti-histatin 3/5 monoclonal antibody on protein G magnetic beads; 300 ug pooled parotid saliva protein in PBS pH 7.5, 4°C, 24 h; washed with PBS; eluted with 2.5% acetic acid; in-solution or in-gel trypsin digestion, LC-ESI-MS/MS; only the target purified

| Binder | binding [1] | binding [2] |
| --- | --- | --- |
| B1 | binds | binds |
| B2 | binds | binds |
| B3 | binds | binds |
| B4 | binds | binds |
| B5 | binds | binds |
| DSHAKRHHGYKRKFHEKHHSHRGYRSNYLYDN (peptide, UniProt P15516 20-51) [Histatin-3] | binds | binds |
| DSHEKRHHGYRRKFHEKHHSHREFPFYGDYGSNYLYDN (peptide, UniProt P15515 20-57, serine phosphate at residue 2) [Histatin-1] | binds | binds |
| B6 | binds | binds |
| B7 | binds | binds |
| B8 | binds | binds |
| B9 | binds | binds |
| B10 | binds | binds |
